The assay relates to CD2F1 mice, L1210 leukemia ip, survival T/C. The assay can be described thus: NCI In Vivo Anticancer Drug Screen. Data for tumor model L1210 Leukemia (intraperitoneal) in CD2F1 (CDF1) mice. Particulars: higher T/C = longer survival. In outline: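 Ratio T/C, where T is the treated-group value and C the vehicle-dosed control value, from mice implanted with a transplantable tumor.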

The mark [1] stands for this setting: T/C endpoint: mean survival time, dose: 200.0 mg/kg/injection, schedule: Q04DX002 (ip), vehicle: saline with Tween-80.
The mark [2] stands for this setting: T/C endpoint: mean survival time, dose: 400.0 mg/kg/injection, schedule: Q04DX002 (ip), vehicle: saline with Tween-80.
The mark [3] stands for this setting: T/C endpoint: mean survival time, dose: 100.0 mg/kg/injection, schedule: Q01DX001 (ip), vehicle: saline with Tween-80.
Where [4] appears, read: T/C endpoint: mean survival time, dose: 200.0 mg/kg/injection, schedule: Q01DX001 (ip), vehicle: saline with Tween-80.
The mark [5] stands for this setting: T/C endpoint: mean survival time, dose: 400.0 mg/kg/injection, schedule: Q01DX001 (ip), vehicle: saline with Tween-80.
The mark [6] stands for this setting: T/C endpoint: mean survival time, dose: 300.0 mg/kg/injection, schedule: Q01DX001 (ip), vehicle: saline.
Setting [7] is: T/C endpoint: mean survival time, dose: 400.0 mg/kg/injection, schedule: Q01DX009 (ip), vehicle: saline with Tween-80.
Setting [8] is: T/C endpoint: mean survival time, dose: 50.0 mg/kg/injection, schedule: Q01DX009 (ip), vehicle: saline with Tween-80.
The mark [9] stands for this setting: T/C endpoint: mean survival time, dose: 100.0 mg/kg/injection, schedule: Q01DX009 (ip), vehicle: saline with Tween-80.
Where [10] appears, read: T/C endpoint: mean survival time, dose: 200.0 mg/kg/injection, schedule: Q04DX003 (ip), vehicle: saline with Tween-80.

SMILES strings stand for the structures. The list does not hold the whole screen: it is rich in T/C values a quarter to a half above the control, in often repeated tests (any T/C) and in doses without a T/C. Further doses and runs are listed elsewhere. T/C is the treated group as % of the vehicle group. Some entries give survivors of the animals treated and no T/C: the source holds a T/C of zero for them, seemingly a mark for toxic or unscored doses. Some doses without a T/C left all or most animals alive at the check, yet need not have been tolerated: survival well below the control is almost never listed, so the zero probably covers shortened survival too. Survivors were counted at the toxicity check, usually on the fifth day, unless a day is given; later deaths do not show. Schedules are NCI's codes, read here as Q, the interval in days (D) or hours (H), X, the number of doses. For survival time, this PubChem deposit counts one and a half times the control or more as active, and values a quarter to a half above the control carry no call in these data; other NCI protocols may use other cut-offs. Some doses were run more than once; the results are listed from low to high. Some T/C values carry the count of animals alive at the toxicity check (mostly the fifth day); where none is given, no animal had died by that day.

Regarding `O=c1[nH]c(=O)n(C2CC(O)C(CO)O2)cc1F` (centres undefined), the T/C was 131 % of control (T/C endpoint: mean survival time, dose: 25.0 mg/kg/injection, schedule: Q03HX024 (oral), vehicle: saline); 140 % of control (T/C endpoint: mean survival time, dose: 31.3 mg/kg/injection, schedule: Q01DX009 (ip), vehicle: saline); 125 % of control (T/C endpoint: mean survival time, dose: 31.3 mg/kg/injection, schedule: Q01DX009 (oral), vehicle: saline); 135 % of control (T/C endpoint: mean survival time, dose: 31.3 mg/kg/injection, schedule: Q01DX009 (sc), vehicle: saline); 126 % of control [5 of 6 alive] (T/C endpoint: mean survival time, dose: 37.5 mg/kg/injection, schedule: Q01DX007 (ip), vehicle: water); 128 % of control (T/C endpoint: mean survival time, dose: 37.5 mg/kg/injection, schedule: Q01DX009 (ip), vehicle: water). Besides, the T/C was 132 and 148 % of control (T/C endpoint: mean survival time, dose: 40.0 mg/kg/injection, schedule: Q01DX009 (ip), vehicle: saline); 136 % of control (T/C endpoint: mean survival time, dose: 62.5 mg/kg/injection, schedule: Q01DX005 (ip), vehicle: saline); 145 % of control (T/C endpoint: mean survival time, dose: 62.5 mg/kg/injection, schedule: Q01DX009 (ip), vehicle: saline); 143 % of control (T/C endpoint: mean survival time, dose: 62.5 mg/kg/injection, schedule: Q01DX009 (oral), vehicle: saline); 139 % of control (T/C endpoint: mean survival time, dose: 62.5 mg/kg/injection, schedule: Q01DX009 (sc), vehicle: saline); 148 % of control (T/C endpoint: mean survival time, dose: 80.0 mg/kg/injection, schedule: Q01DX009 (ip), vehicle: saline). The T/C runs as follows: (T/C endpoint: mean survival time, dose: 100.0 mg/kg/injection, schedule: Q01DX009 (oral), vehicle: saline) 126 % of control; (T/C endpoint: mean survival time, dose: 100.0 mg/kg/injection, schedule: Q03HX008 (oral), vehicle: saline) 134 % of control; (T/C endpoint: mean survival time, dose: 100.0 mg/kg/injection, schedule: Q03HX016 (ip), vehicle: saline) 142 % of control; (T/C endpoint: mean survival time, dose: 125.0 mg/kg/injection, schedule: Q01DX005 (ip), vehicle: saline) 146 % of control; (T/C endpoint: mean survival time, dose: 125.0 mg/kg/injection, schedule: Q01DX009 (ip), vehicle: saline) 137 % of control; (T/C endpoint: mean survival time, dose: 125.0 mg/kg/injection, schedule: Q01DX009 (sc), vehicle: saline) 141 % of control. The T/C (T/C endpoint: mean survival time, dose: 150.0 mg/kg/injection, schedule: Q03DX003 (ip), vehicle: water) was 142 % of control; the T/C (T/C endpoint: mean survival time, dose: 150.0 mg/kg/injection, schedule: Q04DX003 (ip), vehicle: water) was 134 % of control; the T/C (T/C endpoint: mean survival time, dose: 160.0 mg/kg/injection, schedule: Q01DX009 (ip), vehicle: saline) is 126 % of control; the T/C (T/C endpoint: mean survival time, dose: 200.0 mg/kg/injection, schedule: Q04DX003 (oral), vehicle: saline) is 131 % of control; the T/C (T/C endpoint: mean survival time, dose: 250.0 mg/kg/injection, schedule: Q01DX005 (ip), vehicle: saline) was 131 % of control; the T/C (T/C endpoint: mean survival time, dose: 250.0 mg/kg/injection, schedule: Q03HX008 (ip), vehicle: saline) is 136 % of control. Moreover, the T/C was 125 % of control (T/C endpoint: mean survival time, dose: 250.0 mg/kg/injection, schedule: Q03HX016 (ip), vehicle: saline); 132 % of control (T/C endpoint: mean survival time, dose: 320.0 mg/kg/injection, schedule: Q01DX009 (ip), vehicle: saline); 135 % of control (T/C endpoint: mean survival time, dose: 500.0 mg/kg/injection, schedule: Q01DX001 (ip), vehicle: saline); 140 % of control (T/C endpoint: mean survival time, dose: 500.0 mg/kg/injection, schedule: Q01DX001 (sc), vehicle: saline); 142 % of control (T/C endpoint: mean survival time, dose: 500.0 mg/kg/injection, schedule: Q03HX008 (ip), vehicle: saline); 128 % of control (T/C endpoint: mean survival time, dose: 500.0 mg/kg/injection, schedule: Q04DX003 (ip), vehicle: saline). Further, the T/C runs as follows: (T/C endpoint: mean survival time, dose: 800.0 mg/kg/injection, schedule: Q01DX001 (oral), vehicle: saline) 132 % of control; (T/C endpoint: mean survival time, dose: 1000.0 mg/kg/injection, schedule: Q01DX001 (ip), vehicle: saline) 131 % of control; (T/C endpoint: mean survival time, dose: 1000.0 mg/kg/injection, schedule: Q03HX016 (ip), vehicle: saline) 143 % of control; (T/C endpoint: mean survival time, dose: 1000.0 mg/kg/injection, schedule: Q08DX002 (ip), vehicle: saline) 126 % of control; (T/C endpoint: median survival time, dose: 240.0 mg/kg/injection, schedule: Q04DX002 (ip), vehicle: saline) 141 % of control. Moreover, the survivor count (T/C endpoint: mean survival time, dose: 400.0 mg/kg/injection, schedule: Q01DX005 (ip), vehicle: water) is 6 of 6.

Turning to `C[N+](C)(C)CSSC[N+](C)(C)C`, the survivor count runs as follows: (T/C endpoint: mean survival time, dose: 100.0 mg/kg/injection, schedule: Q04DX002 (ip), vehicle: saline with Tween-80) 0 of 3; under setting [1], 0 of 3; under setting [2], 0 of 3.

Consider `NC1CCCCC(O)CCCC1` (centres undefined), for which the survivor count under setting [3] was 3 of 6, the survivor count under setting [4] is listed as 1 of 6 and the survivor count under setting [5] is reported as 0 of 6.

Regarding `COc1c2c(cc3c1C(O)N(C)CC3)OCO2` (centres undefined), the survivor count under setting [6] is reported as 1 of 6.

For the compound `CC#CCO`, the survivor count under setting [7] is given as 0 of 6.

`CC(=O)[O][Hg][c]1ccccc1`: the survivor count runs as follows: (T/C endpoint: mean survival time, dose: 50.0 mg/kg/injection, schedule: Q01DX001 (ip), vehicle: Klucel (hydroxypropylcellulose) (HPC)) 0 of 3; under setting [8], 3 of 6; under setting [3], 0 of 3; under setting [9], 0 of 6; under setting [4], 0 of 3; (T/C endpoint: mean survival time, dose: 200.0 mg/kg/injection, schedule: Q01DX009 (ip), vehicle: saline with Tween-80) 0 of 6. Also, the survivor count by setting is: under setting [5], 0 of 3; under setting [7], 0 of 6.

Consider `N#CC(CC(=O)OCc1ccccc1)NC(=O)OCc1ccccc1` (centres undefined), for which the survivor count (T/C endpoint: mean survival time, dose: 100.0 mg/kg/injection, schedule: Q04DX003 (ip), vehicle: saline with Tween-80) is given as 6 of 6.

Consider `O=C1N(Cc2ccccc2)CC2C(c3ccccc3)NNC12O` (centres undefined), for which the survivor count under setting [10] is reported as 6 of 6.

For the compound `O=CC(=O)c1ccc(O)cc1`, the survivor count (T/C endpoint: mean survival time, dose: 200.0 mg/kg/injection, schedule: Q01DX009 (ip), vehicle: saline) is listed as 4 of 6.

`ClC1C(c2ccccc2)=C(c2ccccc2)c2ccccc21` (centres undefined): the survivor count by setting is: under setting [9], 5 of 6; under setting [5], 5 of 6.

In the case of `CCN1CCCC(Nc2nc(Nc3cc(Cl)cc(Cl)c3)nc3ccc(Cl)cc23)C1` (centres undefined), the survivor count under setting [8] is 1 of 6; the survivor count under setting [9] is given as 3 of 6; the survivor count under setting [10] is 3 of 6; the survivor count (T/C endpoint: mean survival time, dose: 400.0 mg/kg/injection, schedule: Q04DX003 (ip), vehicle: saline with Tween-80) was 0 of 6.

With `CCC1(c2ccccc2)C(=O)N(Cl)C(=O)N(Cl)C1=O`, the survivor count is, setting by setting: under setting [4], 3 of 6; under setting [5], 2 of 6.

On to `Nc1nc(N)c2cc(NCc3ccc(Cl)c(Cl)c3)ccc2n1`, for which the survivor count reads like this: (T/C endpoint: mean survival time, dose: 75.0 mg/kg/injection, schedule: Q01DX001 (ip), vehicle: saline) 3 of 6; (T/C endpoint: mean survival time, dose: 150.0 mg/kg/injection, schedule: Q01DX001 (ip), vehicle: saline) 0 of 6; under setting [6], 0 of 6.

Regarding `O=C1CC2CC=CCC2C(=O)O1` (centres undefined), the survivor count under setting [6] is 2 of 6.

Turning to `CC(C)(C)c1ccc(SC(=O)c2ccc(C(=O)Sc3ccc(C(C)(C)C)cc3)cc2)cc1`, the survivor count is given as 3 of 3 under setting [1] and 3 of 3 under setting [2].
